Assay results reported in EP0349681A1, “Methods for treating hydrocarbon recovery operations and industrial waters” (PETROLITE CORPORATION, priority 1988, dated 1990).

Experiment: bottle test of reverse demulsifiers
Conditions: 30 ppm chemical, 100 shakes; for Break Time: 100 ml oil field water

Structure (SMILES): S=C(S)NCCCCCCN(CCCCCCNC(=S)S)C(=S)S [Example 6]
- Break Time: 30 s
- Comments (cleanness of the separated water): Sparkling clear water

Structure (SMILES): CCCCCCCCN(CCCNC(=S)S)C(=S)S [Example 8]
- Break Time: 30 s
- Comments (cleanness of the separated water): Sparkling clear water
